Source: PubChem BioAssay AID1487 (National Center for Advancing Translational Sciences (NCATS), 2009)
This is one part of the list. Shown are side measurements of this screen, not its main read-out; they come without a call. Most of these compounds were active or inconclusive in the main read-out, so they are no random draw. The note in brackets gives the kind of curve behind each potency; many fits are weak.

Test: qHTS Assay for Modulators of Lamin A Splicing
Conditions: HeLa LMNA splicing GFP/RFP minigene ratio, 48 h
Method in brief: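 S3 HeLa cells stably expressing lamin A-EGFP splicing minigene plus DsRed2, 600 cells/well, 48 h compound exposure at 37C. Laser-scanning cytometry; analysed as GFP (500-530 nm)/RFP (575-640 nm) total intensity ratio; 0.5% DMSO vehicle.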

[1] = measured here: RFP viability control channel
[2] = measured here: GFP splicing reporter channel

Structure (SMILES)	AC50 [1]	AC50 [2]
O=C(Cc1ccc(-n2c(=O)c3ccccc3n(Cc3ccccc3Cl)c2=O)cc1)NCC1CCCO1 (stereo unspecified)	44.7 µM [falling, partial curve]	
COc1ccc(C2=Nn3c(nnc3-c3ccccn3)SC2)cc1	11.2 µM [rising, partial curve]	
COc1ccc(Cn2nnnc2C(c2cccs2)N2CCN(c3ccccc3)CC2)cc1 (stereo unspecified)		11.2 µM [rising, single point]
CC[C@@H]1OC(=O)[C@H](C)[C@H](O[C@@H]2C[C@](C)(OC)[C@H](O)[C@H](C)O2)[C@H](C)[C@H](O[C@@H]2O[C@@H](C)C[C@@H](N(C)C)[C@@H]2O)[C@](C)(O)C[C@H](C)C(=NOCOCCOC)[C@H](C)[C@H](O)[C@]1(C)O	3.16 µM [falling, single point]	0.2 µM [falling, partial curve, poor fit]
Cc1ccc(Cl)cc1N1CCN(C(=O)CCS(=O)(=O)c2ccc3c(c2)oc(=O)n3C)CC1	7.94 µM [falling, full curve]	3.55 µM [falling, partial curve, poor fit]
Cc1cccc(CN2CCN(C(c3ccccc3)c3ccc(Cl)cc3)CC2)c1 (stereo unspecified)	12.6 µM [rising, partial curve]	28.2 µM [rising, partial curve]
CCC(=O)N1c2ccccc2CC1C(=O)N1CCN(c2ccccc2F)CC1 (stereo unspecified)		0.0316 µM [rising, full curve, poor fit]
COc1cnc(NS(=O)(=O)c2ccc(N)cc2)nc1	12.6 µM [falling, single point]	7.94 µM [falling, single point]
CCOC(=O)C1CCN(c2ncnc3c2c(-c2ccccc2)cn3-c2ccc(Cl)cc2)CC1		2.24 µM [falling, single point]
CN(C)c1cc[n+](CC(=O)N2c3ccccc3Sc3ccccc32)cc1	25.1 µM [rising, single point]	
CC1CC(C)CN(C(=O)c2ccc(CSc3nc4ccncc4[nH]3)cc2)C1 (stereo unspecified)	12.6 µM [rising, partial curve]	
Fc1cccc(Nc2cc(-n3cccn3)ncn2)c1	11.2 µM [rising, partial curve]	7.94 µM [rising, partial curve]
Cc1cccc(NCCC(=O)c2ccc(Br)cc2)c1	35.5 µM [falling, single point]	35.5 µM [falling, single point]
CCOc1ccc(-c2cc(C(=O)O)c3ccccc3n2)c(OCC)c1	10 µM [rising, partial curve]	
Cc1ccccc1NC(=O)C(=Cc1ccc(C(=O)O)cc1)C(=O)Nc1ccccc1C		0.708 µM [falling, full curve, poor fit]
COc1cccc(OC)c1OCCOc1ccc(C(=O)c2ccccc2)cc1	0.0794 µM [rising, full curve, poor fit]	0.0891 µM [rising, full curve, poor fit]
Cn1cc(-c2nc3cncnc3n(CCN)c2=O)c2ccccc21		10 µM [falling, partial curve, poor fit]

Structure (SMILES)	AC50 [1]	AC50 [2]
CCc1ccc(CN(C)Cc2nc(COc3ccccc3)no2)nc1	7.94 µM [falling, partial curve, poor fit]	11.2 µM [falling, partial curve]
CCc1cc2c(-c3ccccc3)cc(=O)oc2c(CN2CCOCC2)c1O	35.5 µM [rising, single point]	
CC(C)(C)C(=O)Nc1nnc(SCc2ccc(F)cc2)s1	35.5 µM [rising, single point]	
CCC1CCCCN1C(=O)c1c(-c2ccccc2)noc1C (stereo unspecified)	35.5 µM [rising, single point]	
COc1cc(-c2c(C#N)c(N)nc(SCc3ccncc3)c2C#N)cc(OC)c1OC	14.1 µM [rising, partial curve]	10 µM [rising, partial curve]
O=C(O)CCC(=O)Nc1ccc(S(=O)(=O)Nc2nccs2)cc1	0.00316 µM [falling, full curve, poor fit]	0.00251 µM [falling, full curve, poor fit]
COc1cc(NC(=O)C2Cc3ccccc3N2C(=O)c2ccccc2)cc(OC)c1 (stereo unspecified)	31.6 µM [rising, partial curve, poor fit]	
CC(CNC(=O)CCCn1c(=O)c2cccn2c2ccc(F)cc21)c1ccccc1 (stereo unspecified)		4.47 µM [rising, partial curve]
COc1ccc(C(=O)NC(=S)NCc2ccccc2)cc1OC	0.178 µM [falling, full curve, poor fit]	
COC1CCCCC1Nc1ccc(C)c(C)c1 (stereo unspecified)	5.01 µM [falling, partial curve, poor fit]	
O=C1C2C=CC=CC2=NC(=S)N1CCN1CCC(=C(c2ccc(F)cc2)c2ccc(F)cc2)CC1 (stereo unspecified)	0.002 µM [falling, full curve, poor fit]	0.002 µM [falling, full curve, poor fit]
CCN(C(=O)CCc1nc(-c2ccc(OC)cc2)no1)c1cc(OC)ccc1OC	35.5 µM [rising, single point]	35.5 µM [rising, single point]
COc1ccc(N2CCN(c3ncnc4c3nnn4C)CC2)cc1	4.47 µM [falling, full curve, poor fit]	
O=C1CSC(=S)N1/N=C/C=C/c1ccccc1		3.16 µM [rising, single point]
CC1(C)Cc2c(sc3[nH]c(=S)n(Cc4ccco4)c(=O)c23)CO1		35.5 µM [falling, single point]
CC(=O)c1c(C)[nH]c(C(=O)NCc2ccccc2Cl)c1C	35.5 µM [rising, single point]	
CS(=O)(=O)N(CC(O)CON=C1c2ccccc2-c2ccccc21)c1ccc(F)cc1 (stereo unspecified)	11.2 µM [rising, single point]	

At a glance, part of the list above:
Structure (SMILES)	AC50 [1]	AC50 [2]
COc1cnc(NS(=O)(=O)c2ccc(N)cc2)nc1	12.6 µM [falling, single point]	7.94 µM [falling, single point]
CCOC(=O)C1CCN(c2ncnc3c2c(-c2ccccc2)cn3-c2ccc(Cl)cc2)CC1		2.24 µM [falling, single point]
CN(C)c1cc[n+](CC(=O)N2c3ccccc3Sc3ccccc32)cc1	25.1 µM [rising, single point]	
CC1CC(C)CN(C(=O)c2ccc(CSc3nc4ccncc4[nH]3)cc2)C1 (stereo unspecified)	12.6 µM [rising, partial curve]	
Fc1cccc(Nc2cc(-n3cccn3)ncn2)c1	11.2 µM [rising, partial curve]	7.94 µM [rising, partial curve]
Cc1cccc(NCCC(=O)c2ccc(Br)cc2)c1	35.5 µM [falling, single point]	35.5 µM [falling, single point]
CCOc1ccc(-c2cc(C(=O)O)c3ccccc3n2)c(OCC)c1	10 µM [rising, partial curve]	
Cc1ccccc1NC(=O)C(=Cc1ccc(C(=O)O)cc1)C(=O)Nc1ccccc1C		0.708 µM [falling, full curve, poor fit]
COc1cccc(OC)c1OCCOc1ccc(C(=O)c2ccccc2)cc1	0.0794 µM [rising, full curve, poor fit]	0.0891 µM [rising, full curve, poor fit]
Cn1cc(-c2nc3cncnc3n(CCN)c2=O)c2ccccc21		10 µM [falling, partial curve, poor fit]
